PubChem BioAssay AID743454, Peter MacCallum Cancer Centre, 2014

Aim: 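Search for knock-downs that restore vorinostat killing in resistant colon cancer cells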 (primary screen)
Cell system: human HCT116-VR colon cancer cells, selected for vorinostat resistance
Knock-down reagent: siRNA pool against human genes, 40 nM siRNA pool
Timing: vorinostat for 24 h, read-out about 72 h after transfection
Challenge: vorinostat at 2.5 µM final
Detection: 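Cell viability by CellTiter-Fluor and caspase 3/7 activity by luminescence, each scaled to mock wells per plate, duplicates averaged, then robust z-scored over all plates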
Reading the numbers: viability robust z-score: higher = more viable cells than screen typical; caspase robust z-score: higher = more caspase 3/7 activity than screen typical
Active means: 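a knock-down is a hit when classed RV1 or RV2 for lowered viability, or CA1 or CA2 for caspase activation; those lethal without drug were dropped; hits were retested singly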
The whole screen tested about 18,000 reagents; shown is an unselected part. 450 of all reagents (2.5%) count as active. 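Single biological run; no consistent viability z cut-off exists, so the class columns, not z-scores, define the calls.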 Reagent sequences are not shown.

target gene | viability hit class | caspase hit class | viability robust z-score | caspase robust z-score | Outcome
MKKS | no change | no change | -0.84 | 0.29 | inactive
TPST2 | no change | no change | 0.16 | -0.44 | inactive
HOXB6 | no change | no change | 1.88 | 0.84 | inactive
TSPYL2 | no change | no change | 0.16 | -0.4 | inactive
ZNG1A | no change | no change | 0.85 | -0.82 | inactive
SYTL3 | RV2 (reduced viability) | no change | -3.27 | 1.43 | active
IGSF1 | no change | no change | -0.02 | -0.56 | inactive
TSPYL4 | no change | no change | -0.4 | 1.24 | inactive
H4C13 | no change | no change | -0.5 | 0.73 | inactive
ZDHHC20 | no change | no change | -0.24 | -0.78 | inactive
MAP3K12 | no change | no change | 0.76 | 0.67 | inactive
VNN1 | no change | no change | -0.22 | 0.41 | inactive
ZNF565 | no change | no change | -0.44 | 2.43 | inactive
CACNA1I | no change | no change | -0.76 | -0.04 | inactive
ANGPTL8 | no change | no change | 0.18 | 1.1 | inactive
SLC19A3 | no change | no change | 1.06 | -0.59 | inactive
NCR3 | no change | no change | 0.1 | 0.39 | inactive
NUP62 | RV2 (reduced viability) | CA2 (caspase activation) | -3.42 | 8.13 | active
DDX41 | no change | no change | -0.97 | -0.14 | inactive
RPL27 | no change | no change | -5.56 | -0.95 | inactive
OR4X1 | no change | no change | -0.67 | 2.22 | inactive
SERTAD1 | no change | CA2 (caspase activation) | -2.25 | 5.73 | active
LVRN | no change | no change | -0.21 | -1.08 | inactive
SLC66A3 | no change | no change | -1.4 | -0.18 | inactive
PTK6 | no change | no change | 0.2 | -0.73 | inactive
ADGRB1 | no change | no change | 0.58 | 0.44 | inactive
ATP5F1A | no change | no change | 0.04 | 0.37 | inactive
CFAP53 | no change | no change | 0.76 | -0.53 | inactive
NAA16 | no change | no change | 0.66 | -0.26 | inactive
LTB4R2 | no change | no change | -0.71 | 0.24 | inactive
RBM33 | no change | no change | -0.6 | 2.04 | inactive
AGR2 | no change | no change | -0.52 | -0.36 | inactive
ZNF624 | no change | no change | -0.04 | 0.4 | inactive
CIART | no change | no change | 0.74 | -0.24 | inactive
RGPD5 | no change | no change | 0.02 | 0.46 | inactive
GARIN1B | no change | no change | 1.46 | -0.52 | inactive
TOPBP1 | no change | no change | -0.02 | 4.77 | inactive
P2RX3 | no change | no change | 0.76 | -0.04 | inactive
GALNT10 | no change | no change | -2.82 | 3.68 | inactive
SPX | no change | no change | 0.06 | 0.22 | inactive
FUT4 | no change | no change | 0.02 | 1.24 | inactive
MYBPC3 | no change | no change | -0.44 | 1.8 | inactive
MAML2 | no change | no change | -1.35 | 0.34 | inactive
WAC | no change | no change | -0.19 | 1.29 | inactive
NUDT6 | no change | no change | 0.13 | -0.24 | inactive
SALL2 | no change | no change | 1.42 | 0.42 | inactive
TDRD10 | no change | no change | 0.1 | -0.15 | inactive
NT5C3B | no change | no change | 1.69 | 3.13 | inactive
ACTA2 | no change | no change | 0.3 | 1.7 | inactive
MARCHF9 | no change | no change | -1.21 | 3.6 | inactive
ITGA2 | no change | no change | 0.88 | -0.11 | inactive
GRM6 | no change | no change | -0.56 | 3.24 | inactive
GDF6 | no change | no change | -0.27 | -0.38 | inactive
GK | no change | no change | -0.3 | -0.82 | inactive
ABT1 | no change | no change | 0.38 | 0.52 | inactive
MAPK11 | no change | no change | -0.57 | -1.12 | inactive
KCNK6 | no change | CA1 (caspase activation) | -1.22 | 5.75 | active
ASNS | no change | no change | 1.1 | -0.6 | inactive
BMP15 | no change | no change | -1.42 | -0.79 | inactive
HIF3A | no change | no change | -0.12 | 1.59 | inactive
PPP1R14A | no change | no change | 0.22 | -1.08 | inactive
PCP2 | no change | CA2 (caspase activation) | -0.94 | 5.24 | active
FITM1 | no change | no change | -1.5 | -0.83 | inactive
CAMK2N1 | no change | no change | 0.27 | 3.48 | inactive
NPFFR2 | no change | no change | -1.08 | 0.29 | inactive
PREX1 | no change | no change | 0.92 | 0.14 | inactive
TNFRSF10D | no change | no change | -0.65 | 1.49 | inactive
KDM6A | no change | no change | 0 | 0.74 | inactive
RTL4 | no change | no change | 0.88 | -0.96 | inactive
CARD16 | no change | no change | 0.4 | -0.29 | inactive
PPP4R1 | no change | no change | 2.05 | 1.04 | inactive
MARCHF8 | no change | no change | -0.5 | 3.17 | inactive
OTOL1 | no change | no change | 0.56 | -0.5 | inactive

Records listed so far whose gene name begins with P or p (6):
target gene | viability hit class | caspase hit class | viability robust z-score | caspase robust z-score | Outcome
PTK6 | no change | no change | 0.2 | -0.73 | inactive
P2RX3 | no change | no change | 0.76 | -0.04 | inactive
PPP1R14A | no change | no change | 0.22 | -1.08 | inactive
PCP2 | no change | CA2 (caspase activation) | -0.94 | 5.24 | active
PREX1 | no change | no change | 0.92 | 0.14 | inactive
PPP4R1 | no change | no change | 2.05 | 1.04 | inactive
